Measurements reported in US20250283871A1, “COMPOSITIONS AND METHODS FOR MODULATING THE INTERACTION BETWEEN SS18-SSX FUSION ONCOPROTEIN AND NUCLEOSOMES” (Dana-Farber Cancer Institute, Inc., priority 2020, published 2025).

Tested on: BAF complex subunits and histone proteins
Assay: Mass spectrometry proteomics of purified HA-SS18 WT and HA-SS18-SSX1 complexes (Tables 5A-5E)
Design: species or system human
Settings: for Total / Unique: HA-SS18SSX1_CHR_peptides; for Total: total peptides of the identified protein; for Unique: unique peptides of the identified protein; for Total (total peptides) / Unique (unique peptides) / Total (peptides) / Unique (peptides): HEK-293T
[1] = HA-SS18WT_CHR_peptides: protein identified in HA-SS18 WT BAF complex purification from nuclease-treated solubilized chromatin (CHR)
[2] = HA-SS18WT_NE_peptides: proteins co-purified with HA-SS18 WT from nuclear extract (NE)
[3] = HA-SS18WT_CHR_peptides: HA-SS18 WT purification from nuclease-treated solubilized chromatin (CHR), label = protein identified
[4] = HA-SS18SSX1 purification, NE (soluble nuclear extract) fraction, peptides per identified protein
[5] = HA-SS18WT_NE_peptides: HA-SS18 WT complexes purified from nuclear extract (NE), label = protein identified (Gene Symbol)

Molecule	Total	Unique	Total (total peptides) [1]	Unique (unique peptides) [1]	Total (peptides) [2]	Unique (peptides) [2]	Total (peptides) [3]	Unique (peptides) [3]	Total (total peptides) [4]	Unique (unique peptides) [4]	Total (peptides) [5]	Unique (peptides) [5]
DDX3Y (protein, UniProt O15523 2-660, looked up) ATP-dependent RNA helicase …: SHVVVKNDPELDQQLANLDLNSEKQSGGASTASKGRYIPPHLRNREASKGFHDKDSSGWSCSKDKDAYSSFGSRDSRGKPGYFSERGSGSRGRFDDRGRSDYDGIGNRERPGFGRFERSGHSRWCDKSVEDDWSKPLPPSERLEQELFSGGNTGINFEKYDDIPVEATGSNCPPHIENFSDIDMGEIIMGNIELTRYTRPTPVQKHAIPIIKGKRDLMACAQTGSGKTAAFLLPILSQIYTDGPGEALKAVKENGRYGRRKQYPISLVLAPTRELAVQIYEEARKFSYRSRVRPCVVYGGADIGQQIRDLERGCHLLVATPGRLVDMMERGKIGLDFCKYLVLDEADRMLDMGFEPQIRRIVEQDTMPPKGVRHTMMFSATFPKEIQMLARDFLDEYIFLAVGRVGSTSENITQKVVWVEDLDKRSFLLDILGATGSDSLTLVFVETKKGADSLEDFLYHEGYACTSIHGDRSQRDREEALHQFRSGKSPILVATAVAARGLDISNVRHVINFDLPSDIEEYVHRIGRTGRVGNLGLATSFFNEKNMNITKDLLDLLVEAKQEVPSWLENMAYEHHYKGGSRGRSKSNRFSGGFGARDYRQSSGSSSSGFGASRGSSSRSGGGGYGNSRGFGGGGYGGFYNSDGYGGNYNSQGVDWWGN	3	3	2	2	1	1						
BRPF1 (protein, UniProt P55201 1-1214, looked up) Peregrin: MGVDFDVKTFCHNLRATKPPYECPVETCRKVYKSYSGIEYHLYHYDHDNPPPPQQTPLRKHKKKGRQSRPANKQSPSPSEVSQSPGREVMSYAQAQRMVEVDLHGRVHRISIFDNLDVVSEDEEAPEEAPENGSNKENTETPAATPKSGKHKNKEKRKDSNHHHHHNVSASTTPKLPEVVYRELEQDTPDAPPRPTSYYRYIEKSAEELDEEVEYDMDEEDYIWLDIMNERRKTEGVSPIPQEIFEYLMDRLEKESYFESHNKGDPNALVDEDAVCCICNDGECQNSNVILFCDMCNLAVHQECYGVPYIPEGQWLCRRCLQSPSRAVDCALCPNKGGAFKQTDDGRWAHVVCALWIPEVCFANTVFLEPIDSIEHIPPARWKLTCYICKQRGSGACIQCHKANCYTAFHVTCAQQAGLYMKMEPVRETGANGTSFSVRKTAYCDIHTPPGSARRLPALSHSEGEEDEDEEEDEGKGWSSEKVKKAKAKSRIKMKKARKILAEKRAAAPVVSVPCIPPHRLSKITNRLTIQRKSQFMQRLHSYWTLKRQSRNGVPLLRRLQTHLQSQRNCDQVGRDSEDKNWALKEQLKSWQRLRHDLERARLLVELIRKREKLKRETIKVQQIAMEMQLTPFLILLRKTLEQLQEKDTGNIFSEPVPLSEVPDYLDHIKKPMDFFTMKQNLEAYRYLNFDDFEEDFNLIVSNCLKYNAKDTIFYRAAVRLREQGGAVLRQARRQAEKMGIDFETGMHIPHSLAGDEATHHTEDAAEEERLVLLENQKHLPVEEQLKLLLERLDEVNASKQSVGRSRRAKMIKKEMTALRRKLAHQRETGRDGPERHGPSSRGSLTPHPAACDKDGQTDSAAEESSSQETSKGLGPNMSSTPAHEVGRRTSVLFSKKNPKTAGPPKRPGRPPKNRESQMTPSHGGSPVGPPQLPIMSSLRQRKRGRSPRPSSSSDSDSDKSTEDPPMDLPANGFSGGNQPVKKSFLVYRNDCSLPRSSSDSESSSSSSSSAASDRTSTTPSKQGRGKPSFSRGTFPEDSSEDTSGTENEAYSVGTGRGVGHSMVRKSLGRGAGWLSEDEDSPLDALDLVWAKCRGYPSYPALIIDPKMPREGMFHHGVPIPVPPLEVLKLGEQMTQEAREHLYLVLFFDNKRTWQWLPRTKLVPLGVNQDLDKEKMLEGRKSNIRKSVQIAYHRALQHRSKVQGEQSSETSDSD	3	3										
RRS1 (protein, UniProt Q15050 1-365, looked up) Ribosome biogenesis …: MEGQSVEELLAKAEQDEAEKLQRITVHKELELQFDLGNLLASDRNPPTGLRCAGPTPEAELQALARDNTQLLINQLWQLPTERVEEAIVARLPEPTTRLPREKPLPRPRPLTRWQQFARLKGIRPKKKTNLVWDEVSGQWRRRWGYQRARDDTKEWLIEVPGNADPLEDQFAKRIQAKKERVAKNELNRLRNLARAHKMQLPSAAGLHPTGHQSKEELGRAMQVAKVSTASVGRFQERLPKEKVPRGSGKKRKFQPLFGDFAAEKKNQLELLRVMNSKKPQLDVTRATNKQMREEDQEEAAKRRKMSQKGKRKGGRQGPGGKRKGGPPSQGGKRKGGLGGKMNSGPPGLGGKRKGGQRPGGKRRK	3	3					3	3				
HACD3 (protein, UniProt Q9P035 1-362, looked up) Very-long-chain …: MENQVLTPHVYWAQRHRELYLRVELSDVQNPAISITENVLHFKAQGHGAKGDNVYEFHLEFLDLVKPEPVYKLTQRQVNITVQKKVSQWWERLTKQEKRPLFLAPDFDRWLDESDAEMELRAKEEERLNKLRLESEGSPETLTNLRKGYLFMYNLVQFLGFSWIFVNLTVRFCILGKESFYDTFHTVADMMYFCQMLAVVETINAAIGVTTSPVLPSLIQLLGRNFILFIIFGTMEEMQNKAVVFFVFYLWSAIEIFRYSFYMLTCIDMDWKVLTWLRYTLWIPLYPLGCLAEAVSVIQSIPIFNETGRFSFTLPYPVKIKVRFSFFLQIYLIMIFLGLYINFRHLYKQRRRRYGQKKKKIH	3	3	1	1					9	7	9	7
NOL11 (protein, UniProt Q9H8H0 1-719, looked up) Nucleolar protein 11: MAALEEEFTLSSVVLSAGPEGLLGVEQSDKTDQFLVTDSGRTVILYKVSDQKPLGSWSVKQGQIITCPAVCNFQTGEYVVVHDNKVLRIWNNEDVNLDKVFKATLSAEVYRILSVQGTEPLVLFKEGAVRGLEALLADPQQKIETVISDEEVIKWTKFFVVFRHPVLIFITEKHGNYFAYVQMFNSRILTKYTLLLGQDENSVIKSFTASVDRKFISLMSLSSDGCIYETLIPIRPADPEKNQSLVKSLLLKAVVSGNARNGVALTALDQDHVAVLGSPLAASKECLSVWNIKFQTLQTSKELPQGTSGQLWYYGEHLFMLHGKSLTVIPYKCEVSSLAGALGKLKHSQDPGTHVVSHFVNWETPQGCGLGFQNSEQSRRILRRRKIEVSLQPEVPPSKQLLSTIMKDSEKHIEVEVRKFLALKQTPDFHTVIGDTVTGLLERCKAEPSFYPRNCLMQLIQTHVLSYSLCPDLMEIALKKKDVQLLQLCLQQFPDIPESVTCACLKIFLSIGDDSLQETDVNMESVFDYSINSVHDEKMEEQTEILQNGFNPEEDKCNNCDQELNKKPQDETKESTSCPVVQKRAALLNAILHSAYSETFLLPHLKDIPAQHITLFLKYLYFLYLKCSENATMTLPGIHPPTLNQIMDWICLLLDANFTVVVMMPEAKRLLINLYKLVKSQISVYSELNKIEVSFRELQKLNQEKNNRGLYSIEVLELF	3	3					5	5				
